Measured values reported in publication PMC7819943, “Rice protein-binding microarrays: a tool to detect cis-acting elements near promoter regions in rice”.
The other results are listed elsewhere or left out.

Chains of the proteins cited; added tags and fusions are not shown.
UniProt Q0JBA9, entry or part of it: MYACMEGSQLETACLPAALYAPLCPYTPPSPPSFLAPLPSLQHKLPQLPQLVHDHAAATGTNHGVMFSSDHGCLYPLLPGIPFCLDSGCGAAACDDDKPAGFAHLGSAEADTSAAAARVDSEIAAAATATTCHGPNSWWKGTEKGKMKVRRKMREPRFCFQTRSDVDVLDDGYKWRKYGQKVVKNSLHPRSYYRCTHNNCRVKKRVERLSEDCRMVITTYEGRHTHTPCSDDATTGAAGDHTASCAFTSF

What follows are sequences tested against OsWRKY34 (Oryza sativa, UniProt Q0JBA9 1-250) (assay: protein-binding microarray (RPBM); PBS, 2% BSA, 51.3 ng/ul salmon testes DNA, 50 uM zinc acetate, 200 nM TF, 25 C, 1 h; high values mean tight binding). Conditions: protein: recombinant; tags: N-terminal polyhistidine and DsRed monomer fusion (pET32a); label: CyDye5-dUTP incorporated in the synthesized complementary strand; 3' TTTTT single-stranded linker to array surface; dsDNA, one strand shown.
How it was run: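 Transcription factors were each fused at the N-terminus to a polyhistidine tag plus DsRed and expressed in E. coli BL21-CodonPlus before Ni–NTA purification. Binding to a double-stranded custom Agilent array was carried out with 200 nM protein at 25 °C for 1 h in PBS, 2% BSA, salmon testes DNA and 50 µM zinc acetate. The binding signal is per-feature fluorescence intensity, in arbitrary units, on an Axon 4000B scanner.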

Question: For “ATCCAGTATAGTGTTGGTGATCTTTTGTGGCTATTTAGTTCGGAGTCACCTAGTGCAG”, which binding signal is on record?
Answer: 8590 fluorescence intensity (a.u.)

Question: With “GTGCACCGCCGATTCTCTTATCACTCTTTTTTATCAATATCGGAGTCACCTAGTGCAG” as the sequence, how does the binding signal read?
Answer: 8520 fluorescence intensity (a.u.)

Question: “CTTCTTCTATATCTGTAATCTTTCCTTATCTCCTCCCATGCGGAGTCACCTAGTGCAG” was tested. Which binding signal did it give?
Answer: 8520 fluorescence intensity (a.u.)

Question: “CGCTAGAAGCTTCCATTCCAAGCTCCAATCGGTCGTTGACCGGAGTCACCTAGTGCAG” was tested. Which binding signal did it give?
Answer: 9460 fluorescence intensity (a.u.)

Question: “CAGACACATACCTTTCATGCTTCAACTTTTGTATGTTTGTCGGAGTCACCTAGTGCAG” was tested. Which binding signal did it give?
Answer: 8170 fluorescence intensity (a.u.)

Question: With “GCATCACCATTCTATACATCACTGTGTTCATTATGAGCTTCGGAGTCACCTAGTGCAG” as the sequence, how does the binding signal read?
Answer: 10500 fluorescence intensity (a.u.)

Question: Which binding signal does the source give for “TGCTGGTCTCCCATCGTCTATCCCGCTTCCATCTCACATTCGGAGTCACCTAGTGCAG” here?
Answer: 8860 fluorescence intensity (a.u.)

Question: “TCATCGTAATAGGATACCACATCTCGTATTCGATCATCGACGGAGTCACCTAGTGCAG” was tested. Which binding signal did it give?
Answer: 8730 fluorescence intensity (a.u.)

Question: Which binding signal does the source give for “ATACCCTAGCATCGACGATCCTCATACCATGCAAATACCACGGAGTCACCTAGTGCAG” here?
Answer: 8240 fluorescence intensity (a.u.)

Question: “CACCTTCTTTTTCTCTCTCTCTCTCTCTCTCTTTCTCATCCGGAGTCACCTAGTGCAG” was tested. Which binding signal did it give?
Answer: 10300 fluorescence intensity (a.u.)

Question: For “TATATATATATATATATATATATATATATGAGAAGGTTACCGGAGTCACCTAGTGCAG”, which binding signal is on record?
Answer: 11000 fluorescence intensity (a.u.)

Question: With “CTTAACGCATTTAATATATGGTCAATTCTGTCAATCTATGCGGAGTCACCTAGTGCAG” as the sequence, how does the binding signal read?
Answer: 8340 fluorescence intensity (a.u.)

Question: For “TTAACTCTTTCGTCGCCATGCTATTTTTCCTTTTCTTTATCGGAGTCACCTAGTGCAG”, which binding signal is on record?
Answer: 10800 fluorescence intensity (a.u.)

Question: How did the binding signal turn out when “GGAATATTCTCACATCTCAGCCATCCATTTTCCATCTCAACGGAGTCACCTAGTGCAG” was run?
Answer: 9090 fluorescence intensity (a.u.)

Question: For “GAATTCTCCATGTGTTGTGTTCGTCTTCTTCCTCCAGCTACGGAGTCACCTAGTGCAG”, which binding signal is on record?
Answer: 8650 fluorescence intensity (a.u.)

Question: With “CCTGTAAGTTCTTCCGCATGTGCTAAGCTTGTGTTTTCTTCGGAGTCACCTAGTGCAG” as the sequence, how does the binding signal read?
Answer: 8920 fluorescence intensity (a.u.)

Question: Which binding signal does the source give for “ACGCGCCATCTCGCCGCTCGGTGGCTTCTTCTTCTTCTACCGGAGTCACCTAGTGCAG” here?
Answer: 10100 fluorescence intensity (a.u.)

Question: “GTAGTCTTGGTTATATCCGAGCTAGTTGTGTCCTCATCAACGGAGTCACCTAGTGCAG” was tested. Which binding signal did it give?
Answer: 9540 fluorescence intensity (a.u.)

Question: “AGAGAGGGGTGGTGGTGGACTCATTCGCGCGACCAAGTATCGGAGTCACCTAGTGCAG” was tested. Which binding signal did it give?
Answer: 9720 fluorescence intensity (a.u.)

Question: For “GTTTTTTTTTTCTTCTTACTCCCTCCGTTCCATTTTAAGTCGGAGTCACCTAGTGCAG”, which binding signal is on record?
Answer: 9980 fluorescence intensity (a.u.)

Question: “CACTACAGTATTTGCAAATTTCACCCAAACACATCGGTCTCGGAGTCACCTAGTGCAG” was tested. Which binding signal did it give?
Answer: 8880 fluorescence intensity (a.u.)

Question: “TCTGATCGATCTTTACCGCTAGCTGCAGTTTTCTTGGGCGCGGAGTCACCTAGTGCAG” was tested. Which binding signal did it give?
Answer: 8100 fluorescence intensity (a.u.)

Question: Which binding signal does the source give for “TCCTACCTGACACATCCCGATGCGTTGCCAGCTCATCCCGCGGAGTCACCTAGTGCAG” here?
Answer: 9370 fluorescence intensity (a.u.)

Question: Which binding signal does the source give for “ATGTTTCGTGATTTCTTTTTCTTCTTCCTTGACGAGTTTTCGGAGTCACCTAGTGCAG” here?
Answer: 8360 fluorescence intensity (a.u.)

Question: Which binding signal does the source give for “ATCTCATCTATTTTCACCATGTGTACACCTCCCTCAATATCGGAGTCACCTAGTGCAG” here?
Answer: 9280 fluorescence intensity (a.u.)

Question: With “CTGGTGGTTTTGCTGTTTATTTGGGTGACAATCTTGTTTCCGGAGTCACCTAGTGCAG” as the sequence, how does the binding signal read?
Answer: 9450 fluorescence intensity (a.u.)

Question: With “GAATCGGCCTGTTCCTTTTCCATTGATTTTCACAGTCTTTCGGAGTCACCTAGTGCAG” as the sequence, how does the binding signal read?
Answer: 12100 fluorescence intensity (a.u.)

Question: With “ATGGTAGCCAAGCCCACTCGACCACCCCACAGGCCCACACCGGAGTCACCTAGTGCAG” as the sequence, how does the binding signal read?
Answer: 8150 fluorescence intensity (a.u.)

Question: With “GTACTCCCTCCATCCCTAAATGTTTGACGCCGTTGACTTTCGGAGTCACCTAGTGCAG” as the sequence, how does the binding signal read?
Answer: 16000 fluorescence intensity (a.u.)

Question: “TCATACTCGTCTATACCATAGAACATGCCCTTAATATCTTCGGAGTCACCTAGTGCAG” was tested. Which binding signal did it give?
Answer: 8630 fluorescence intensity (a.u.)

Question: For “TTAGGTCTCACAACGCCATCTTGCAAGCCAAACAACTGCCCGGAGTCACCTAGTGCAG”, which binding signal is on record?
Answer: 8670 fluorescence intensity (a.u.)

Question: Which binding signal does the source give for “GTTGTCTTGTGGGAATTATTTTTTCTGTCCAAGTTGGCCGCGGAGTCACCTAGTGCAG” here?
Answer: 8030 fluorescence intensity (a.u.)

Question: With “GACGGTGACGAACTAGGTTTCTTTTTTTTCTTTTTTCTTTCGGAGTCACCTAGTGCAG” as the sequence, how does the binding signal read?
Answer: 11600 fluorescence intensity (a.u.)

Question: For “CTCAATCGATAAACCCTAGTATTAACTTGCTTTATTCCTCCGGAGTCACCTAGTGCAG”, which binding signal is on record?
Answer: 8300 fluorescence intensity (a.u.)

Question: With “CGGGCCTCCTCGCCGCCGTGCTCCTCTCCTCCCTCCTCGACGGAGTCACCTAGTGCAG” as the sequence, how does the binding signal read?
Answer: 8040 fluorescence intensity (a.u.)

Question: “CCGAGCCACAACCATAGCCTCACGTCATCTTCCCCTTTCACGGAGTCACCTAGTGCAG” was tested. Which binding signal did it give?
Answer: 8730 fluorescence intensity (a.u.)

Question: “AAAAATTCGTCTCGTGATTTTCTCCCTACCTGCGCAATTACGGAGTCACCTAGTGCAG” was tested. Which binding signal did it give?
Answer: 9240 fluorescence intensity (a.u.)

Question: How did the binding signal turn out when “GTATACCTGCGCGTATACGGATGTTTTCGGCGTACATTAACGGAGTCACCTAGTGCAG” was run?
Answer: 8390 fluorescence intensity (a.u.)

Question: With “GCCCGTCGTCGTCCCACTAGTTCGATCGATCGCCACCATGCGGAGTCACCTAGTGCAG” as the sequence, how does the binding signal read?
Answer: 8570 fluorescence intensity (a.u.)

Question: “CTCATCCTAACTCCTGCTTGTTTTTTCATGTAAACACTTCCGGAGTCACCTAGTGCAG” was tested. Which binding signal did it give?
Answer: 8080 fluorescence intensity (a.u.)

Question: How did the binding signal turn out when “GTTAAGGGTGTGTTTGGATGGATATTATGGCGGCTTGTATCGGAGTCACCTAGTGCAG” was run?
Answer: 8390 fluorescence intensity (a.u.)

Question: Which binding signal does the source give for “TCTCGTTCTGTAAAGTGTCCTTTGCGGTATTCAGAATTTCCGGAGTCACCTAGTGCAG” here?
Answer: 8060 fluorescence intensity (a.u.)
